Measurements as given in publication PMC11443453.

The chains behind the UniProt entries cited, without tags or fusion partners.
UniProt Q16665: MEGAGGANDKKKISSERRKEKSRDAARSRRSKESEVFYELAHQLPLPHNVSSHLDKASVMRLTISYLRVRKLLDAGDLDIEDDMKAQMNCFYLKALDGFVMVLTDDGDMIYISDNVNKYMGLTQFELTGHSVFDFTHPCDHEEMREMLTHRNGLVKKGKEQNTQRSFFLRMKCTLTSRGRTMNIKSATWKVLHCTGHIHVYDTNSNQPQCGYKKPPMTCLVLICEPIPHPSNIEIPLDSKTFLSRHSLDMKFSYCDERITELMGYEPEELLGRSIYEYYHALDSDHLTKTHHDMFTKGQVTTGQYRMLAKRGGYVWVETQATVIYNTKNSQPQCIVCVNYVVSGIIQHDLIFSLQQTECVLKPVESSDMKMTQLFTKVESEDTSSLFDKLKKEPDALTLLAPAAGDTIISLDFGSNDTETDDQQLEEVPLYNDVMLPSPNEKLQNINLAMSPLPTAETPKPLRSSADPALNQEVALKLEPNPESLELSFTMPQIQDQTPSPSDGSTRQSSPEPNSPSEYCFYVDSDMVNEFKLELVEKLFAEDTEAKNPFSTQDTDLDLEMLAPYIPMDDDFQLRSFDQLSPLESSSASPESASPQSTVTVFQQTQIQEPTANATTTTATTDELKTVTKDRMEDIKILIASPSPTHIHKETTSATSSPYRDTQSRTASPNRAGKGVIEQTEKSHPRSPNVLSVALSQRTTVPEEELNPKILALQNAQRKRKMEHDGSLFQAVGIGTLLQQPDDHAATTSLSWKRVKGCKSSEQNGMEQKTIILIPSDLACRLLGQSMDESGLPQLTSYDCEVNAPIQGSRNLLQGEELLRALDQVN

Target: T1, FLAG-tagged CARM1 (coactivator-associated arginine methyltransferase 1) (UniProt Q86X55)
T1 sequence: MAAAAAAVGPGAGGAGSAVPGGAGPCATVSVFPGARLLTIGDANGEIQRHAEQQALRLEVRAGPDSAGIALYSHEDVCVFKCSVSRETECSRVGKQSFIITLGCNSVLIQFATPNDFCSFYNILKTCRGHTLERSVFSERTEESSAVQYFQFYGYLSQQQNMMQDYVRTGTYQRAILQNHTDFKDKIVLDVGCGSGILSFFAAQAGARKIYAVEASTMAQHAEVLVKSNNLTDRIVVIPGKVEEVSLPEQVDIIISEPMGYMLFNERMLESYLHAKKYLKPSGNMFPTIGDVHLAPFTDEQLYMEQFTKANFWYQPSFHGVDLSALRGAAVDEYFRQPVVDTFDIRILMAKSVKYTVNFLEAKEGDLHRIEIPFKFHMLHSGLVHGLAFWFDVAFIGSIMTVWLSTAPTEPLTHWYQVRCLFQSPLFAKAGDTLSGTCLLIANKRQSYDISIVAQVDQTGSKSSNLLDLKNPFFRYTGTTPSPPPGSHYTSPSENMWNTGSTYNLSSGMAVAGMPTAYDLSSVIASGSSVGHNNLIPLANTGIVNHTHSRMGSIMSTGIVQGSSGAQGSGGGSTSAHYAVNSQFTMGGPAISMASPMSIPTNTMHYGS
Test: affinity purification with mass spectrometry; lysates of MDA-MB-231 cells stably expressing vector or FLAG-CARM1 on an anti-FLAG column, eluted with FLAG peptide, SDS-PAGE, silver stain, LC-MS/MS; verified by Western blot

## Hypoxia-inducible factor-1 subunit alpha (HIF1A), endogenous (from UniProt Q16665 1-826)
  binding: binds

No constants are given. Whether binding was seen depends on the method and setting. In cells and extracts the contact can be indirect. Here binding means that the protein was enriched with, or labelled near, the bait; the list need not be complete. Tags and fused reporters may be left off the sequences shown.
